Measurements published in US20140194358A1.
Results are given in words; binding and its absence hold for the method and conditions named. Some binding calls cover weakened binding; strength is not graded here.

Amino acid sequences for entries named in this document (tags omitted). A change or cut given only in a name is not applied to a line headed by its entry. Chains listed by the source or under a name are the forms on record and can include a tag or linker.
hVEGF (P15692, form named): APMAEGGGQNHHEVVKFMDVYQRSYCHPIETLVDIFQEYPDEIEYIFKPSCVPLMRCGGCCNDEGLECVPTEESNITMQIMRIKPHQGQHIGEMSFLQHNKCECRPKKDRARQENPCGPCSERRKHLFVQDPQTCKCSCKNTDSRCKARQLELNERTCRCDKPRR

Tests used:
hVEGF (human) [1] = target: hVEGF (human) (UniProt P15692); experiment: peptide spot array with hVEGF (FIG. 2B)
hVEGF (human) [2] = target: hVEGF (human) (UniProt P15692); experiment: VEGF binding: peptide spot array with hVEGF, confirmed by ELISA and dot blot
hVEGF (human) [3] = target: hVEGF (human) (UniProt P15692); experiment: ELISA and dot blot with synthesized peptide

Measured: binding

B1: prominin-1 peptide #237 (…) (peptide)
peptide: DRVQRQTTTVVA
binds: all assays above

B2: prominin-1 peptide #122 (…) (peptide)
peptide: ITNNTSSVIIEE
binds: all assays above

B3: prominin-1 peptide #3 (…) (peptide)
peptide: LCGNSFSGGQPS
binds: all assays above

B4: prominin-1 peptide #42 (…) (peptide)
peptide: PNIIPVLDEIKS
binds: all assays above

B5: prominin-1 peptide #640 (…) (peptide)
peptide: CSFAYDLEAKANSLPPGNLRN
binds: all assays above

B6: prominin-1 peptide #77 (…) (peptide)
peptide: LCGVCGYDRHAT
binds: all assays above
